# At least one compound was matched to its structure with a doubt left.
# Experiment: Isomer ratios under dark and at photostationary states by 1H NMR
# Type: physicochemical
# Conditions: CD2Cl2
# Experimental: ^1H NMR spectroscopy was employed to evaluate the photo-switching efficiency of 10 in CD2Cl2 (0.53 mM).
# […] The LEDs were affixed in a custom irradiation chamber fitted with a cooling fan to maintain ambient temperature. The light intensities at 430 and 600 nm were determined using chemical actinometry^S1 and a Thorlabs optical power meter, respectively. Photoisomerization quantum yields were measured by monitoring the proton integral change in trans/cis isomers after 430 and 600 nm irradiation for 2 and 20 s, respectively. Each quantum yield measurement was repeated three times under the same conditions. The photostationary states (PSS) were determined upon continuous irradiation until no further isomerization was observed using ^1H NMR spectroscopy. PBS buffer is an aqueous solution prepared by dissolving Na2HPO4 (1.420 g), KH2PO4 (0.245 g) NaCl (8.007 g) and KCl (0.201 g) in 1 L deionized water.
smiles,measurement,value
COc1ccc(N=[N+]2C(C#N)=C3C=Cc4ccccc4N3[B-]2(F)F)c(OC)c1 [Compound 3],isomer ratio (trans:cis) of the equilibrated mixture after storage in the dark,58:42
